# From the supplement of paper PMC8728848
# Some of the results follow.
# B1: Flo11 (Saccharomyces cerevisiae), P08640 (protein)
# chain: MQRPFLLAYLVLSLLFNSALGFPTALVPRGSSEGTSCNSIVNGCPNLDFNWHMDQQNIMQYTLDVTSVSWVQDNTYQITIHVKGKENIDLKYLWSLKIIGVTGPKGTVQLYGYNENTYLIDNPTDFTATFEVYATQDVNSCQVWMPNFQIQFEYLQGSAAQYASSWQWGTTSFDLSTGCNNYDNQGHSQTDFPGFYWNIDCDNNCGGTKSSTTTSSTSESSTTTSSTSESSTTTSSTSESSTTTSSTSESSTSSSTTAPATPTTTSCTKEKPTPPTTTSCTKEKPTPPHHDTTPCTKKKTTTSKTCTKKTTTPVPTPSSSTTESSSAPVPTPSSSTTESSSAPVTSSTTESSSAPVPTPSSSTTESSSAPVTSSTTESSSAPVTSSTTESSSAPVPTPSSSTTESSSAPVTSSTTESSSAPVTSSTTESSSAPVTSSTTESSSAPVTSSTTESSSAPVPTPSSSTTESSSAPVTSSTTESSSAPVPTPSSSTTESSSAPVTSSTTESSSAPVPTPSSSTTESSSAPAPTPSSSTTESSSAPVTSSTTESSSAPVPTPSSSTTESSSTPVTSSTTESSSAPVPTPSSSTTESSSAPVPTPSSSTTESSSAPAPTPSSSTTESSSAPVTSSTTESSSAPVPTPSSSTTESSSAPVPTPSSSTTESSSAPVPTPSSSTTESSSAPVTSSTTESSSAPVTSSTTESSSAPVPTPSSSTTESSSAPVPTPSSSTTESSSAPVPTPSSSTTESSSAPVTSSTTESSSAPVPTPSSSTTESSSAPVPTPSSSTTESSSAPVPTPSSSTTESSVAPVPTPSSSSNITSSAPSSTPFSSSTESSSVPVPTPSSSTTESSSAPVSSSTTESSVAPVPTPSSSSNITSSAPSSIPFSSTTESFSTGTTVTPSSSKYPGSQTETSVSSTTETTIVPTKTTTSVTTPSTTTITTTVCSTGTNSAGETTSGCSPKTVTTTVPTTTTTSVTTSSTTTITTTVCSTGTNSAGETTSGCSPKTITTTVPCSTSPSETASESTTTSPTTPVTTVVSTTVVTTEYSTSTKPGGEITTTFVTKNIPTTYLTTIAPTPSVTTVTNFTPTTITTTVCSTGTNSAGETTSGCSPKTVTTTVPCSTGTGEYTTEATTLVTTAVTTTVVTTESSTGTNSAGKTTTGYTTKSVPTTYVTTLAPSAPVTPATNAVPTTITTTECSAATNAAGETTSVCSAKTIVSSASAGENTAPSATTPVTTAIPTTVITTESSVGTNSAGETTTGYTTKSIPTTYITTLIPGSNGAKNYETVATATNPISIKTTSQLATTASASSVAPVVTSPSLTGPLQSASGSAVATYSVPSISSTYQGAANIKVLGNFMWLLLALPVVF
# Legend:
# Test in all cases: glycan array binding signal (z-score within array); higher = stronger binding
# Details in all cases: glycan notation: IUPAC condensed, linker removed
# [1] = target: Neu5Ac(a2-3)Gal(b1-3)GalNAc6S
# Procedure, shortened: (§1)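 Negative Z-scores can be read as non-binding. The Z-score is calculated within each array and then averaged across arrays of one protein sequence at different concentrations or buffers and across linkers. Arrays, 3228 in all, were curated from the Consortium for Functional Glycomics database and kept only where the protein sequence was available.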
# [2] = target: Neu5Ac(a2-3)Gal(b1-3)GlcNAc
# Procedure, shortened: as §1
# [3] = target: Neu5Ac(a2-3)Gal(b1-3)GlcNAc(b1-3)Gal(b1-3)GlcNAc
# Procedure, shortened: as §1
# [4] = target: Neu5Ac(a2-3)Gal(b1-3)GlcNAc(b1-3)Gal(b1-4)GlcNAc
# Procedure, shortened: as §1
# [5] = target: Neu5Ac(a2-3)Gal(b1-3)GlcNAc(b1-3)GalNAc
# Procedure, shortened: as §1
# [6] = target: Neu5Ac(a2-3)Gal(b1-3)GlcNAc6S
# Procedure, shortened: as §1
# [7] = target: Neu5Ac(a2-3)Gal(b1-3)[Fuc(a1-4)]GlcNAc
# Procedure, shortened: as §1
# [8] = target: Neu5Ac(a2-3)Gal(b1-3)[Fuc(a1-4)]GlcNAc(b1-3)Gal(b1-3)[Fuc(a1-4)]GlcNAc
# Procedure, shortened: as §1
# [9] = target: Neu5Ac(a2-3)Gal(b1-3)[Fuc(a1-4)]GlcNAc(b1-3)Gal(b1-4)[Fuc(a1-3)]GlcNAc
# Procedure, shortened: as §1
# [10] = target: Neu5Ac(a2-3)Gal(b1-3)[Neu5Ac(a2-3)Gal(b1-4)]GlcNAc
# Procedure, shortened: as §1
# [11] = target: Neu5Ac(a2-3)Gal(b1-3)[Neu5Ac(a2-6)]GalNAc
# Procedure, shortened: as §1
# Neu5Ac(a2-3)Gal(b1-4)Glc = target: Neu5Ac(a2-3)Gal(b1-4)Glc
# Procedure, shortened: as §1
# [12] = target: Neu5Ac(a2-3)Gal(b1-4)GlcNAc
# Procedure, shortened: as §1
# [13] = target: Neu5Ac(a2-3)Gal(b1-4)GlcNAc(b1-2)Man(a1-3)[GlcNAc(b1-2)Man(b1-4)GlcNAc(b1-2)Man(a1-6)]Man(b1-4)GlcNAc(b1-4)GlcNAc
# Procedure, shortened: as §1
# [14] = target: Neu5Ac(a2-3)Gal(b1-4)GlcNAc(b1-2)Man(a1-3)[Neu5Ac(a2-6)Gal(b1-4)GlcNAc(b1-2)Man(a1-6)]Man(b1-4)GlcNAc(b1-4)GlcNAc
# Procedure, shortened: as §1
# [15] = target: Neu5Ac(a2-3)Gal(b1-4)GlcNAc(b1-3)Gal
# Procedure, shortened: as §1
# [16] = target: Neu5Ac(a2-3)Gal(b1-4)GlcNAc(b1-3)Gal(b1-3)GlcNAc
# Procedure, shortened: as §1
# [17] = target: Neu5Ac(a2-3)Gal(b1-4)GlcNAc(b1-3)Gal(b1-4)GlcNAc
# Procedure, shortened: as §1
# [18] = target: Neu5Ac(a2-3)Gal(b1-4)GlcNAc(b1-3)Gal(b1-4)GlcNAc(b1-3)Gal(b1-4)GlcNAc
# Procedure, shortened: as §1
# [19] = target: Neu5Ac(a2-3)Gal(b1-4)GlcNAc(b1-3)Gal(b1-4)[Fuc(a1-3)]GlcNAc
# Procedure, shortened: as §1
# [20] = target: Neu5Ac(a2-3)Gal(b1-4)GlcNAc(b1-3)GalNAc
# Procedure, shortened: as §1
# [21] = target: Neu5Ac(a2-3)Gal(b1-4)GlcNAc(b1-6)[Gal(b1-3)]GalNAc
# Procedure, shortened: as §1
# [22] = target: Neu5Ac(a2-3)Gal(b1-4)GlcNAc(b1-6)[Neu5Ac(a2-3)Gal(b1-3)]GalNAc
# Procedure, shortened: as §1
# [23] = target: Neu5Ac(a2-3)Gal(b1-4)GlcNAc6S
# Procedure, shortened: as §1
# [24] = target: Neu5Ac(a2-3)Gal(b1-4)[Fuc(a1-3)]GlcNAc
# Procedure, shortened: as §1
# [25] = target: Neu5Ac(a2-3)Gal(b1-4)[Fuc(a1-3)]GlcNAc(b1-3)Gal
# Procedure, shortened: as §1
# [26] = target: Neu5Ac(a2-3)Gal(b1-4)[Fuc(a1-3)]GlcNAc(b1-3)Gal(b1-4)GlcNAc
# Procedure, shortened: as §1
# [27] = target: Neu5Ac(a2-3)Gal(b1-4)[Fuc(a1-3)]GlcNAc(b1-3)Gal(b1-4)[Fuc(a1-3)]GlcNAc(b1-3)Gal(b1-4)[Fuc(a1-3)]GlcNAc
# Procedure, shortened: as §1
# [28] = target: Neu5Ac(a2-3)Gal(b1-4)[Fuc(a1-3)]GlcNAc(b1-3)GalNAc
# Procedure, shortened: as §1
# [29] = target: Neu5Ac(a2-3)Gal(b1-4)[Fuc(a1-3)]GlcNAc(b1-6)[Gal(b1-3)]GalNAc
# Procedure, shortened: as §1
# [30] = target: Neu5Ac(a2-3)Gal(b1-4)[Fuc(a1-3)]GlcNAc6S
# Procedure, shortened: as §1
# [31] = target: Neu5Ac(a2-3)Gal6S(b1-4)GlcNAc
# Procedure, shortened: as §1
# [32] = target: Neu5Ac(a2-3)Gal6S(b1-4)[Fuc(a1-3)]GlcNAc
# Procedure, shortened: as §1
# Neu5Ac(a2-3)GalNAc = target: Neu5Ac(a2-3)GalNAc
# Procedure, shortened: as §1
# [33] = target: Neu5Ac(a2-3)GalNAc(b1-4)GlcNAc
# Procedure, shortened: as §1
# [34] = target: Neu5Ac(a2-3)[GalNAc(b1-4)]Gal(b1-4)Glc
# Procedure, shortened: as §1
# [35] = target: Neu5Ac(a2-3)[GalNAc(b1-4)]Gal(b1-4)GlcNAc
# Procedure, shortened: as §1
# [36] = target: Neu5Ac(a2-3)[GalNAc(b1-4)]Gal(b1-4)GlcNAc(b1-3)GalNAc
# Procedure, shortened: as §1
# [37] = target: Neu5Ac(a2-3)[Neu5Ac(a2-6)]GalNAc
# Procedure, shortened: as §1
# Neu5Ac(a2-6)Gal = target: Neu5Ac(a2-6)Gal
# Procedure, shortened: as §1
# [38] = target: Neu5Ac(a2-6)Gal(b1-3)GlcNAc(b1-3)[Gal(b1-4)GlcNAc(b1-6)]Gal(b1-4)Glc
# Procedure, shortened: as §1
# Neu5Ac(a2-6)Gal(b1-4)Glc = target: Neu5Ac(a2-6)Gal(b1-4)Glc
# Procedure, shortened: as §1
# [39] = target: Neu5Ac(a2-6)Gal(b1-4)GlcNAc
# Procedure, shortened: as §1
# [40] = target: Neu5Ac(a2-6)Gal(b1-4)GlcNAc(b1-2)Man(a1-3)Man(b1-4)GlcNAc(b1-4)GlcNAc
# Procedure, shortened: as §1
# [41] = target: Neu5Ac(a2-6)Gal(b1-4)GlcNAc(b1-2)Man(a1-3)[Gal(b1-4)GlcNAc(b1-2)Man(a1-6)]Man(b1-4)GlcNAc(b1-4)GlcNAc
# Procedure, shortened: as §1
binder,measurement,setting,value
B1,glycan array binding signal (z-score),[1],-0.833
same,glycan array binding signal (z-score),[2],0.108
same,glycan array binding signal (z-score),[3],-0.416
same,glycan array binding signal (z-score),[4],-0.654
same,glycan array binding signal (z-score),[5],-0.357
same,glycan array binding signal (z-score),[6],-0.836
same,glycan array binding signal (z-score),[7],-0.342
same,glycan array binding signal (z-score),[8],-0.768
same,glycan array binding signal (z-score),[9],-0.273
same,glycan array binding signal (z-score),[10],-0.725
same,glycan array binding signal (z-score),[11],0.464
same,glycan array binding signal (z-score),Neu5Ac(a2-3)Gal(b1-4)Glc,-0.539
same,glycan array binding signal (z-score),[12],-0.28
same,glycan array binding signal (z-score),[13],0.381
same,glycan array binding signal (z-score),[14],-0.204
same,glycan array binding signal (z-score),[15],0.004
same,glycan array binding signal (z-score),[16],0.266
same,glycan array binding signal (z-score),[17],-0.017
same,glycan array binding signal (z-score),[18],0.133
same,glycan array binding signal (z-score),[19],1.43
same,glycan array binding signal (z-score),[20],-0.424
same,glycan array binding signal (z-score),[21],-1.28
same,glycan array binding signal (z-score),[22],-0.861
same,glycan array binding signal (z-score),[23],0.179
same,glycan array binding signal (z-score),[24],-0.261
same,glycan array binding signal (z-score),[25],-1.26
same,glycan array binding signal (z-score),[26],2.91
same,glycan array binding signal (z-score),[27],0.568
same,glycan array binding signal (z-score),[28],3.06
same,glycan array binding signal (z-score),[29],0.861
same,glycan array binding signal (z-score),[30],-0.59
same,glycan array binding signal (z-score),[31],-0.672
same,glycan array binding signal (z-score),[32],1.29
same,glycan array binding signal (z-score),Neu5Ac(a2-3)GalNAc,0.965
same,glycan array binding signal (z-score),[33],-1.32
same,glycan array binding signal (z-score),[34],0.077
same,glycan array binding signal (z-score),[35],0.303
same,glycan array binding signal (z-score),[36],-0.803
same,glycan array binding signal (z-score),[37],0.271
same,glycan array binding signal (z-score),Neu5Ac(a2-6)Gal,0.154
same,glycan array binding signal (z-score),[38],-0.162
same,glycan array binding signal (z-score),Neu5Ac(a2-6)Gal(b1-4)Glc,0.508
same,glycan array binding signal (z-score),[39],0.108
same,glycan array binding signal (z-score),[40],0.843
same,glycan array binding signal (z-score),[41],-0.39

# Three entries from above in a different format.
binder | measurement | setting | value
B1 | glycan array binding signal (z-score) | [2] | 0.108
same | glycan array binding signal (z-score) | [12] | -0.28
same | glycan array binding signal (z-score) | Neu5Ac(a2-3)GalNAc | 0.965
